Measurements published in patent publication US20040175375A1 (SEOUL NATIONAL UNIVERSITY INDUSTRY FOUNDATION, published 2004).
No constants are given. Whether binding was seen depends on the method and setting. For part of these data: In cells and extracts the contact can be indirect. Some entries that bind do so weakly or less than the wild type. For part of these data: Tags and fused reporters may be left off the sequences shown.

T1: p38/JTV-1 (human) (UniProt Q13155)
T1 sequence: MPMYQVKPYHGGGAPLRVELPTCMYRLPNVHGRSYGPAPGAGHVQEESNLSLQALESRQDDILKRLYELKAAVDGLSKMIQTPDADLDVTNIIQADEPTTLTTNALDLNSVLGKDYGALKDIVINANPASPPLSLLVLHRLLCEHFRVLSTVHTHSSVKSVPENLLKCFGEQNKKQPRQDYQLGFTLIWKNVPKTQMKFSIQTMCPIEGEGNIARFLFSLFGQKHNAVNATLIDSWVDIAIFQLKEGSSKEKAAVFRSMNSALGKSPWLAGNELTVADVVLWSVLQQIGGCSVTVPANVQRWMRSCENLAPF

T2: HA-FBP (human, UniProt Q96AE4 1-644)
T2 construct: also called HA-tagged FBP; FBP expression plasmid product; not shown: HA tag from HA-tagged pcDNA3 (Invitrogen)
T2 sequence (looked up): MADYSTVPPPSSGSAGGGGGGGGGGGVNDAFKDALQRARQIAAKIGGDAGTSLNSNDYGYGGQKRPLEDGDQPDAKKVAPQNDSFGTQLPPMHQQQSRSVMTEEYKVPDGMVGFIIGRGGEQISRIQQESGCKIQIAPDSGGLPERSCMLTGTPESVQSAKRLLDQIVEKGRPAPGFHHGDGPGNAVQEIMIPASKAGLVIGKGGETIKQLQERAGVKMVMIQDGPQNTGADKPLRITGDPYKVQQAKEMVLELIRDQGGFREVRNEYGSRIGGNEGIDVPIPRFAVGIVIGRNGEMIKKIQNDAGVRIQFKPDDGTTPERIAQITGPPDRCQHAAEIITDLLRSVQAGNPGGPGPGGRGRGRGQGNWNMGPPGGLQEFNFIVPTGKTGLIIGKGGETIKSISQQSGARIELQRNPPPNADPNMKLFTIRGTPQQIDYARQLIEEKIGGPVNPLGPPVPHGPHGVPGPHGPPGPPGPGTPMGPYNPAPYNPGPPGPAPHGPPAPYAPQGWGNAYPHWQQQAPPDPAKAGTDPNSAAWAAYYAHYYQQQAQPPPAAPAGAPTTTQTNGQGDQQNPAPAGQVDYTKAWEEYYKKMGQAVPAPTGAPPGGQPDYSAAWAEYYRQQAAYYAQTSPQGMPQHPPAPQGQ

T3: PDK-1 (phosphoinositide-dependent kinase) (UniProt O15530)
T3 sequence (looked up): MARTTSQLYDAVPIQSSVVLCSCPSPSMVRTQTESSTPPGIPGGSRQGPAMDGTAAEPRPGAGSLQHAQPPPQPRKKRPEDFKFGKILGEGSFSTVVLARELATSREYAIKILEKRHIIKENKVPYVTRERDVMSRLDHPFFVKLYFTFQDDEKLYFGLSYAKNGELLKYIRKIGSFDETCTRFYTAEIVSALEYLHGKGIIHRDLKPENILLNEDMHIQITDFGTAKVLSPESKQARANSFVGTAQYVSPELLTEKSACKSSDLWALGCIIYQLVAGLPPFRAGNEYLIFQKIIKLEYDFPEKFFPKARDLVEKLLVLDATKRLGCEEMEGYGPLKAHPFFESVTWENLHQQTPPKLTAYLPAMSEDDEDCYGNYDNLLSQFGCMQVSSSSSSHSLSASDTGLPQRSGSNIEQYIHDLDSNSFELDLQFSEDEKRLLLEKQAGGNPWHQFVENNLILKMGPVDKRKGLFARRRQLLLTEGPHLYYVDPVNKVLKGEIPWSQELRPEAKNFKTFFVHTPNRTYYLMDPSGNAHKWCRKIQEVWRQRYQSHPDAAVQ


Columns and labels:
p38/JTV-1 (human) = target: T1, p38/JTV-1 (human); experiment: anti-FLAG immunoprecipitation from human embryonic kidney cells, western blot with anti p38/JTV-1
HA-FBP = target: T2, HA-FBP; experiment: co-immunoprecipitation with anti-myc from 293 cells, western blot
Description: The transfected cells were lysed with the RIPA buffer for 16 hours after the transfection. […] After a protein A-agarose bead had been added to the above reactant, the mixture was incubated further for 1 hour at 4° C. The bead was washed with lysis buffer four times. The precipitated proteins were analyzed by SDS-PAGE and then transferred onto nitrocellulose membranes.

[1] = substrate: FBP (FUSE-binding protein) (human) (UniProt Q96AE4); experiment: affinity purification and immunoprecipitation (data not shown)
[2] = target: T3, PDK-1 (phosphoinositide-dependent kinase); experiment: co-immunoprecipitation from HCT116 cells, western blot

| binding (HA-FBP) | Binder | also measured |
| --- | --- | --- |
| – | FLAG-tagged PDK-1 full-length fragment (amino acids 1-556) (enzyme, UniProt O15530 1-556, looked up, not shown: small tags and cut ends) MARTTSQLYDAVPIQSSVVLCSCPSPSMVRTQTESSTPPGIPGGSRQGPAMDGTAAEPRPGAGSLQHAQPPPQPRKKRPEDFKFGKILGEGSFSTVVLARELATSREYAIKILEKRHIIKENKVPYVTRERDVMSRLDHPFFVKLYFTFQDDEKLYFGLSYAKNGELLKYIRKIGSFDETCTRFYTAEIVSALEYLHGKGIIHRDLKPENILLNEDMHIQITDFGTAKVLSPESKQARANSFVGTAQYVSPELLTEKSACKSSDLWALGCIIYQLVAGLPPFRAGNEYLIFQKIIKLEYDFPEKFFPKARDLVEKLLVLDATKRLGCEEMEGYGPLKAHPFFESVTWENLHQQTPPKLTAYLPAMSEDDEDCYGNYDNLLSQFGCMQVSSSSSSHSLSASDTGLPQRSGSNIEQYIHDLDSNSFELDLQFSEDEKRLLLEKQAGGNPWHQFVENNLILKMGPVDKRKGLFARRRQLLLTEGPHLYYVDPVNKVLKGEIPWSQELRPEAKNFKTFFVHTPNRTYYLMDPSGNAHKWCRKIQEVWRQRYQSHPDAAVQ | binding (p38/JTV-1 (human)): binds |
| binds | myc-tagged p38/JTV-1 deletion fragment, amino acids 1-161 (protein, not shown: small tags and cut ends) MPMYQVKPYHGGGAPLRVELPTCMYRLPNVHGRSYGPAPGAGHVQEESNLSLQALESRQDDILKRLYELKAAVDGLSKMIQTPDADLDVTNIIQADEPTTLTTNALDLNSVLGKDYGALKDIVINANPASPPLSLLVLHRLLCEHFRVLSTVHTHSSVKSV | – |
| – | p38/JTV-1 (protein) MPMYQVKPYHGGGAPLRVELPTCMYRLPNVHGRSYGPAPGAGHVQEESNLSLQALESRQDDILKRLYELKAAVDGLSKMIQTPDADLDVTNIIQADEPTTLTTNALDLNSVLGKDYGALKDIVINANPASPPLSLLVLHRLLCEHFRVLSTVHTHSSVKSVPENLLKCFGEQNKKQPRQDYQLGFTLIWKNVPKTQMKFSIQTMCPIEGEGNIARFLFSLFGQKHNAVNATLIDSWVDIAIFQLKEGSSKEKAAVFRSMNSALGKSPWLAGNELTVADVVLWSVLQQIGGCSVTVPANVQRWMRSCENLAPF | binding [1]: binds |
| – | HA-(p38/JTV-1) (protein, not shown: small tags and cut ends) MPMYQVKPYHGGGAPLRVELPTCMYRLPNVHGRSYGPAPGAGHVQEESNLSLQALESRQDDILKRLYELKAAVDGLSKMIQTPDADLDVTNIIQADEPTTLTTNALDLNSVLGKDYGALKDIVINANPASPPLSLLVLHRLLCEHFRVLSTVHTHSSVKSVPENLLKCFGEQNKKQPRQDYQLGFTLIWKNVPKTQMKFSIQTMCPIEGEGNIARFLFSLFGQKHNAVNATLIDSWVDIAIFQLKEGSSKEKAAVFRSMNSALGKSPWLAGNELTVADVVLWSVLQQIGGCSVTVPANVQRWMRSCENLAPF | binding [2]: binds |
| binds | myc-(p38/JTV-1), amino acids 1-312 (full length) (other, also called myc-tagged p38/JTV-1; p38/JTV-1 expression plasmid product; not shown: myc tag from myc-tagged pcDNA3 (Invitrogen)) MPMYQVKPYHGGGAPLRVELPTCMYRLPNVHGRSYGPAPGAGHVQEESNLSLQALESRQDDILKRLYELKAAVDGLSKMIQTPDADLDVTNIIQADEPTTLTTNALDLNSVLGKDYGALKDIVINANPASPPLSLLVLHRLLCEHFRVLSTVHTHSSVKSVPENLLKCFGEQNKKQPRQDYQLGFTLIWKNVPKTQMKFSIQTMCPIEGEGNIARFLFSLFGQKHNAVNATLIDSWVDIAIFQLKEGSSKEKAAVFRSMNSALGKSPWLAGNELTVADVVLWSVLQQIGGCSVTVPANVQRWMRSCENLAPF | – |
| binds | myc-tagged p38/JTV-1 deletion fragment, amino acids 84-312 (protein, not shown: small tags and cut ends) DADLDVTNIIQADEPTTLTTNALDLNSVLGKDYGALKDIVINANPASPPLSLLVLHRLLCEHFRVLSTVHTHSSVKSVPENLLKCFGEQNKKQPRQDYQLGFTLIWKNVPKTQMKFSIQTMCPIEGEGNIARFLFSLFGQKHNAVNATLIDSWVDIAIFQLKEGSSKEKAAVFRSMNSALGKSPWLAGNELTVADVVLWSVLQQIGGCSVTVPANVQRWMRSCENLAPF | – |
